The list shows a part of the results. Repeats in this data set agree poorly, so a single value says little.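 Screen of FDA-approved drugs, each combined with colistin at one-eighth of its MIC, against a multidrug-resistant mcr-1-positive clinical E. coli isolate; growth read as OD600 after 24 h. Bacteria without drug were the growth control and plain broth the blank. A combination counted as active when OD600 fell below 0.2.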
The compounds below were run on Escherichia coli 42 (mcr-1-positive clinical isolate) (assay: OD600 after 24 h growth with compound plus colistin (absorbance units (OD600)); higher = more bacterial growth (less inhibition)). Conditions: first compound 25 µM; colistin concentration 0.5 ug/mL; incubation time 24 h; 37 °C.

OD600, inactive:
CCN1CCN(Cc2ccc(Nc3ncc(F)c(-c4cc(F)c5nc(C)n(C(C)C)c5c4)n3)nc2)CC1 [Abemaciclib methanesulfonate] + CCC(C)CCCC(=O)N[C@@H](CCN)C(=O)N[C@H](C(=O)N[C@@H](CCN)C(=O)N[C@H]1CCNC(=O)[C@H]([C@@H](C)O)NC(=O)[C@H](CCN)NC(=O)[C@H](CCN)NC(=O)[C@H](CC(C)C)NC(=O)[C@@H](CC(C)C)NC(=O)[C@H](CCN)NC1=O)[C@@H](C)O [colistin] 0.917
CC(C)C[C@H](NC(=O)CNC(=O)c1cc(Cl)ccc1Cl)B1OC(=O)CC(CC(=O)O)(C(=O)O)O1 (stereo partly drawn) + CCC(C)CCCC(=O)N[C@@H](CCN)C(=O)N[C@H](C(=O)N[C@@H](CCN)C(=O)N[C@H]1CCNC(=O)[C@H]([C@@H](C)O)NC(=O)[C@H](CCN)NC(=O)[C@H](CCN)NC(=O)[C@H](CC(C)C)NC(=O)[C@@H](CC(C)C)NC(=O)[C@H](CCN)NC1=O)[C@@H](C)O [colistin] 0.964
O=C1CCCC(=O)C1C(=O)c1ccc(C(F)(F)F)cc1[N+](=O)[O-] [Nitisinone] + CCC(C)CCCC(=O)N[C@@H](CCN)C(=O)N[C@H](C(=O)N[C@@H](CCN)C(=O)N[C@H]1CCNC(=O)[C@H]([C@@H](C)O)NC(=O)[C@H](CCN)NC(=O)[C@H](CCN)NC(=O)[C@H](CC(C)C)NC(=O)[C@@H](CC(C)C)NC(=O)[C@H](CCN)NC1=O)[C@@H](C)O [colistin] 0.916

Reference: the supplement of paper PMC11546906
